PubChem BioAssay AID652272 – Drosophila RNAi Screening Center | 2013
Aim: 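Finding fly genes that regulate Hedgehog signal transduction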 (primary screen). Cells: Drosophila clone 8 (Cl8) cells. Reagents: long dsRNA against Drosophila genes. Read-out: 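Firefly light from a Hedgehog-responsive ptc promoter reporter and Renilla reference light, both read on a plate reader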. Scale: firefly Hh reporter signal: higher = more ptc reporter light; Renilla reference signal: higher = more Renilla control light. Rule for the call: 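Hit when the z-score averaged over two replicates is under -2 or over +3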. Calls: active = hit: reporter lowered or raised; inactive = not a hit.
The deposit covers about 21,000 reagents; this is a random part of those with a known target gene and a result. In the full data, 503 (2.4%) got an active call. 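Raw plate light values, not normalised; calls rest on replicate z-scores that were not deposited; hits include reporter decreases as well as increases.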 Entries without a mark were called inactive. Names joined by + are all predicted targets of the reagent. Not given: the amount of reagent, the time to read-out.

target	DRSC id	firefly Hh reporter signal, replicate 1	firefly Hh reporter signal, replicate 2	Renilla reference signal, replicate 1	Renilla reference signal, replicate 2
ppan	DRSC17030	4.28e5 (active)	88928	35184	433
CG8100	DRSC10961	78009		5922	2372
CG10628	DRSC02080	71900	46752	1908	3867
mgl	DRSC17800	93688	3.61e5	2684	12272
mgl	DRSC17823	67724	53440	2097	1367
mgl	DRSC17859	1.03e5	3.80e5	3593	13209
mgl	DRSC18004	94935	2.62e5	2757	9751
CG32655	DRSC18925	5.22e5	1.87e5	30088	4170
shg	DRSC04714	1.31e5	77872	5218	3059
pav	DRSC08730	77476	41011	2249	171
COX4L	DRSC04841	78584	56656	1970	4909
CG31008	DRSC14028	4.56e5	1.74e5	21559	3581
CG6574	DRSC16070	48214	89936	1842	2592
CG15059	DRSC19633	1.21e5	2.83e5	3545	12667
Samtor	DRSC04390	1.26e5	75146	4535	3356
CG3916	DRSC15520	79703	1.41e5	2041	3978
pst	DRSC11003	65248	39747	3072	1696
U4-U6-60K	DRSC10624	1.09e5	69031	4816	3282
Skp2 + CG14645	DRSC12231	1.18e5	1.68e5	3544	23495
CG17493	DRSC03798	76100	45241	2649	4662
sced	DRSC04990	67995	60164	2832	2728
ko	DRSC11893	75697	1.05e5	2817	2664
CG8176	DRSC16394	68262	1.10e5	1707	2992
Cyp6a2	DRSC05014	1.23e5	68774	2891	4774
Acbp3	DRSC11022	82535	68684	7063	4320
CG43077	DRSC19168	7.19e5	1.92e5	42368	3783
RpL35A	DRSC12302	27238 (active)	37985	2034	2380
Naxd	DRSC09722	72682	46073	2969	1555
escl	DRSC02828	1.99e5	1.04e5	7364	4123
CG16978	DRSC02553	1.30e5	61456	3250	4951
Cenp-C	DRSC14371	71494	87376	2653	2566
CG34144 (retired record)	DRSC18885	5.83e5	1.67e5	34140	4539
CG34144 (retired record)	DRSC19380	72145	1.42e5	1079	6133
CG34144 (retired record)	DRSC19480	76832	2.01e5	2594	7636
clumsy	DRSC03111	93452	81815	2022	5665
Smox	DRSC18716	88552	2.25e5	2836	7153
CG6282	DRSC10616	1.53e5	1.02e5	6594	3987
CG5359	DRSC15780	67458	86710	2209	2180
HINT1	DRSC00548	1.21e5	88416	2365	2064

6 successive records already listed, for reference:
target	DRSC id	firefly Hh reporter signal, replicate 1	firefly Hh reporter signal, replicate 2	Renilla reference signal, replicate 1	Renilla reference signal, replicate 2
ppan	DRSC17030	4.28e5 (active)	88928	35184	433
CG8100	DRSC10961	78009		5922	2372
CG10628	DRSC02080	71900	46752	1908	3867
mgl	DRSC17800	93688	3.61e5	2684	12272
mgl	DRSC17823	67724	53440	2097	1367
mgl	DRSC17859	1.03e5	3.80e5	3593	13209
